Some entries share one result that the patent states for a list of compounds.
What follows are compounds tested against JAK2 (Homo sapiens, UniProt O60674) (assay: JAK2 Tyrosine Kinase Assay). Conditions: list of named compounds.
Type: biochemical
Method in brief: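 Reaction of JAK2 with fluorescent substrate run 60 min at room temperature and stopped with EDTA. Substrate and phosphorylated product separated electrophoretically on a Caliper LabChip. Compounds tested at eleven concentrations in duplicate, with IC50 from non-linear regression.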

Amino acid sequences for entries named in this document (tags omitted). A change or cut given only in a name is not applied to a line headed by its entry.
UniProt O60674: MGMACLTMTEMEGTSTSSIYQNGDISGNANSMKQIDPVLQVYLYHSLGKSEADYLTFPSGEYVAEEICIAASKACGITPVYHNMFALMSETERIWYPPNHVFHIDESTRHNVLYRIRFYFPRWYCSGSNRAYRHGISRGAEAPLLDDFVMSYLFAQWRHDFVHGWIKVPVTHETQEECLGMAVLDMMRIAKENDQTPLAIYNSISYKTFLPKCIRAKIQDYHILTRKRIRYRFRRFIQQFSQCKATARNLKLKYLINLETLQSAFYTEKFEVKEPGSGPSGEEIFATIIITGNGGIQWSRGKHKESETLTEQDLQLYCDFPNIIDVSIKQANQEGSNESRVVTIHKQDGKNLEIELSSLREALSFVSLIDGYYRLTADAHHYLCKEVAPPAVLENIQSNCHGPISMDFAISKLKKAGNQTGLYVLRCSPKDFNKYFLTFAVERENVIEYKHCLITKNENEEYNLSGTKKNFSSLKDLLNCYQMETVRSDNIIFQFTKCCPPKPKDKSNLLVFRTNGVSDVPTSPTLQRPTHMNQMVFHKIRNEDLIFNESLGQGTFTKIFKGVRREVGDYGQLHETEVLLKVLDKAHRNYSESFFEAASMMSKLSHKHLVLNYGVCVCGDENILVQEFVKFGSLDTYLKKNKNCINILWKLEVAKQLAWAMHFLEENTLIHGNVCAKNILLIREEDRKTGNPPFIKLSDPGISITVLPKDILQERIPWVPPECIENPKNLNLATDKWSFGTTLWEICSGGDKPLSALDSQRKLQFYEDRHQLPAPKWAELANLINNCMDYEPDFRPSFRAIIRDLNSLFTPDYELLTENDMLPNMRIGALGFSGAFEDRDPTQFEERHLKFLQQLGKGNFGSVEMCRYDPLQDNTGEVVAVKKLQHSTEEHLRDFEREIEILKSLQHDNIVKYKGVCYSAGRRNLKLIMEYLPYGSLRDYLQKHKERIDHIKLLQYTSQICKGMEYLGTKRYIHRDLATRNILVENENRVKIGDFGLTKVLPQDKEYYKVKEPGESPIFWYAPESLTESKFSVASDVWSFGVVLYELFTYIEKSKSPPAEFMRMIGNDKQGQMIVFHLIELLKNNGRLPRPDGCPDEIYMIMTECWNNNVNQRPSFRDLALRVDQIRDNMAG

Row | SMILES | selectivity for JAK2 activity versus JAK3 activity
1 | Cc1cc(Nc2nc(N3CCN(C(=O)Cc4ccccc4C(F)(F)F)CC3)nn3cccc23)n[nH]1 [N-(5-methyl-1H-pyrazol-3-yl)-2-(4-((2-(trifluoromethyl)phenyl)acetyl)-1-piperazinyl)pyrrolo[2,1-f][1,2,4]triazin-4-amine] | ≥ 15
2 | Cc1cc(Nc2nc(N3CCN(C(=O)c4cccnc4C)CC3)nn3cccc23)n[nH]1 [N-(5-methyl-1H-pyrazol-3-yl)-2-(4-((2-methyl-3-pyridinyl)carbonyl)-1-piperazinyl)pyrrolo[2,1-f][1,2,4]triazin-4-amine] | ≥ 15
3 | CC[C@@H](C(=O)N1CCN(c2nc(Nc3cc(C)[nH]n3)c3cccn3n2)CC1)c1ccccc1 [N-(5-methyl-1H-pyrazol-3-yl)-2-(4-((2R)-2-phenylbutanoyl)-1-piperazinyl)pyrrolo[2,1-f][1,2,4]triazin-4-amine] | ≥ 15
4 | CC[C@H](C(=O)N1CCN(c2nc(Nc3cc(C)[nH]n3)c3cccn3n2)CC1)c1ccccc1 [N-(5-methyl-1H-pyrazol-3-yl)-2-(4-((2S)-2-phenylbutanoyl)-1-piperazinyl)pyrrolo[2,1-f][1,2,4]triazin-4-amine] | ≥ 15
5 | Cc1cc(Nc2nc(N3CCN(C(=O)[C@@H](C)c4ccccc4)CC3)nn3cccc23)n[nH]1 [N-(5-methyl-1H-pyrazol-3-yl)-2-(4-((2S)-2-phenylpropanoyl)-1-piperazinyl)pyrrolo[2,1-f][1,2,4]triazin-4-amine] | ≥ 15
6 | Cc1cc(Nc2nc(N3CCN(C(=O)Cc4cccc(OC(F)(F)F)c4)CC3)nn3cccc23)n[nH]1 [N-(5-methyl-1H-pyrazol-3-yl)-2-(4-((3-(trifluoromethoxy)phenyl)acetyl)-1-piperazinyl)pyrrolo[2,1-f][1,2,4]triazin-4-amine] | ≥ 15
7 | Cc1cc(Nc2nc(N3CCN(C(=O)Cc4cccc(C(F)(F)F)c4)CC3)nn3cccc23)n[nH]1 [N-(5-methyl-1H-pyrazol-3-yl)-2-(4-((3-(trifluoromethyl)phenyl)acetyl)-1-piperazinyl)pyrrolo[2,1-f][1,2,4]triazin-4-amine] | ≥ 15
8 | Cc1cc(Nc2nc(N3CCN(C(=O)Cc4ccc(OC(F)(F)F)cc4)CC3)nn3cccc23)n[nH]1 [N-(5-methyl-1H-pyrazol-3-yl)-2-(4-((4-(trifluoromethoxy)phenyl)acetyl)-1-piperazinyl)pyrrolo[2,1-f][1,2,4]triazin-4-amine] | ≥ 15
9 | Cc1cc(Nc2nc(N3CCN(C(=O)Cc4ccc(C(F)(F)F)cc4)CC3)nn3cccc23)n[nH]1 [N-(5-methyl-1H-pyrazol-3-yl)-2-(4-((4-(trifluoromethyl)phenyl)acetyl)-1-piperazinyl)pyrrolo[2,1-f][1,2,4]triazin-4-amine] | ≥ 15
10 | Cc1csc(C(=O)N2CCN(c3nc(Nc4cc(C)[nH]n4)c4cccn4n3)CC2)c1 [N-(5-methyl-1H-pyrazol-3-yl)-2-(4-((4-methyl-2-thienyl)carbonyl)-1-piperazinyl)pyrrolo[2,1-f][1,2,4]triazin-4-amine] | ≥ 15
11 | Cc1cc(Nc2nc(N3CCN(C(=O)Cc4ccccc4)CC3)nn3cccc23)n[nH]1 [N-(5-methyl-1H-pyrazol-3-yl)-2-(4-(phenylacetyl)-1-piperazinyl)pyrrolo[2,1-f][1,2,4]triazin-4-amine] | ≥ 15
12 | Cc1cc(Nc2nc(N3CCN(C(=O)C(F)(F)F)CC3)nn3cccc23)n[nH]1 [N-(5-methyl-1H-pyrazol-3-yl)-2-(4-(trifluoroacetyl)-1-piperazinyl)pyrrolo[2,1-f][1,2,4]triazin-4-amine] | ≥ 15
13 | CCCCC(=O)N1CCN(c2nc(Nc3cc(C)[nH]n3)c3cccn3n2)CC1 [N-(5-methyl-1H-pyrazol-3-yl)-2-(4-pentanoyl-1-piperazinyl)pyrrolo[2,1-f][1,2,4]triazin-4-amine] | ≥ 15
14 | Cc1cc(Nc2nc(N3CCN(C(=O)C4(c5ccc(Cl)cc5)CCN(C(=O)OC(C)(C)C)CC4)CC3)nn3cccc23)n[nH]1 [tert-butyl 4-(4-chlorophenyl)-4-((4-(4-((5-methyl-1H-pyrazol-3-yl)amino)pyrrolo[2,1-f][1,2,4]triazin-2-yl)-1-piperazinyl)carbonyl)-1-piperidinecarboxylate] | ≥ 15
15 | Cc1cc(Nc2nc(N3CCN(C(=O)C4(C)CCN(C(=O)OC(C)(C)C)CC4)CC3)nn3cccc23)n[nH]1 [tert-butyl 4-methyl-4-((4-(4-((5-methyl-1H-pyrazol-3-yl)amino)pyrrolo[2,1-f][1,2,4]triazin-2-yl)-1-piperazinyl)carbonyl)-1-piperidinecarboxylate] | ≥ 15
16 | Cc1cc(Nc2nc(N3CCN(C(=O)C(C)(C)NC(=O)OC(C)(C)C)CC3)nn3cccc23)n[nH]1 [tert-butyl (1,1-dimethyl-2-(4-(4-((5-methyl-1H-pyrazol-3-yl)amino)pyrrolo[2,1-f][1,2,4]triazin-2-yl)-1-piperazinyl)-2-oxoethyl)carbamate] | ≥ 15
17 | Cc1cc(Nc2nc(N3CCN(C(=O)C(C)(NC(=O)OC(C)(C)C)C(C)C)CC3)nn3cccc23)n[nH]1 (stereo not shown) [tert-butyl (1,2-dimethyl-1-((4-(4-((5-methyl-1H-pyrazol-3-yl)amino)pyrrolo[2,1-f][1,2,4]triazin-2-yl)-1-piperazinyl)carbonyl)propyl)carbamate] | ≥ 15
18 | Cc1cc(Nc2nc(N3CCN(C(=O)C(NC(=O)OC(C)(C)C)c4ccc(Cl)cc4)CC3)nn3cccc23)n[nH]1 (stereo not shown) [tert-butyl (1-(4-chlorophenyl)-2-(4-(4-((5-methyl-1H-pyrazol-3-yl)amino)pyrrolo[2,1-f][1,2,4]triazin-2-yl)-1-piperazinyl)-2-oxoethyl)carbamate] | ≥ 15
19 | Cc1cc(Nc2nc(N3CCN(C(=O)C4(NC(=O)OC(C)(C)C)CCc5ccccc54)CC3)nn3cccc23)n[nH]1 (stereo not shown) [tert-butyl (1-((4-(4-((5-methyl-1H-pyrazol-3-yl)amino)pyrrolo[2,1-f][1,2,4]triazin-2-yl)-1-piperazinyl)carbonyl)-2,3-dihydro-1H-inden-1-yl)carbamate] | ≥ 15
20 | Cc1cc(Nc2nc(N3CCN(C(=O)C4(NC(=O)OC(C)(C)C)CCC4)CC3)nn3cccc23)n[nH]1 [tert-butyl (1-((4-(4-((5-methyl-1H-pyrazol-3-yl)amino)pyrrolo[2,1-f][1,2,4]triazin-2-yl)-1-piperazinyl)carbonyl)cyclobutyl)carbamate] | ≥ 15
21 | Cc1cc(Nc2nc(N3CCN(C(=O)C4(NC(=O)OC(C)(C)C)CCCCC4)CC3)nn3cccc23)n[nH]1 [tert-butyl (1-((4-(4-((5-methyl-1H-pyrazol-3-yl)amino)pyrrolo[2,1-f][1,2,4]triazin-2-yl)-1-piperazinyl)carbonyl)cyclohexyl)carbamate] | ≥ 15
22 | Cc1cc(Nc2nc(N3CCN(C(=O)c4ccccc4NC(=O)OC(C)(C)C)CC3)nn3cccc23)n[nH]1 [tert-butyl (2-((4-(4-((5-methyl-1H-pyrazol-3-yl)amino)pyrrolo[2,1-f][1,2,4]triazin-2-yl)-1-piperazinyl)carbonyl)phenyl)carbamate] | ≥ 15
23 | Cc1cc(Nc2nc(N3CCN(C(=O)C4(NC(=O)OC(C)(C)C)CCOC4)CC3)nn3cccc23)n[nH]1 (stereo not shown) [tert-butyl (3-((4-(4-((5-methyl-1H-pyrazol-3-yl)amino)pyrrolo[2,1-f][1,2,4]triazin-2-yl)-1-piperazinyl)carbonyl)tetrahydro-3-furanyl)carbamate] | ≥ 15
24 | Cc1cc(Nc2nc(N3CCN(C(=O)C(C)(C)NC(=O)C4CCC(NC(=O)OC(C)(C)C)CC4)CC3)nn3cccc23)n[nH]1 (stereo not shown) [tert-butyl (4-((1,1-dimethyl-2-(4-(4-((5-methyl-1H-pyrazol-3-yl)amino)pyrrolo[2,1-f][1,2,4]triazin-2-yl)-1-piperazinyl)-2-oxoethyl)carbamoyl)cyclohexyl)carbamate] | ≥ 15
25 | Cc1cc(Nc2nc(N3CCN(C(=O)[C@H](NC(=O)OC(C)(C)C)c4ccccc4)CC3)nn3cccc23)n[nH]1 [tert-butyl((1R)-2-(4-(4-((5-methyl-1H-pyrazol-3-yl)amino)pyrrolo[2,1-f][1,2,4]triazin-2-yl)-1-piperazinyl)-2-oxo-1-phenylethyl)carbamate] | ≥ 15
